Screening data, single-dose tests

The chains behind the UniProt entries cited, without tags or fusion partners. Residues count along the entry.
UniProt P9WPC5, whole entry: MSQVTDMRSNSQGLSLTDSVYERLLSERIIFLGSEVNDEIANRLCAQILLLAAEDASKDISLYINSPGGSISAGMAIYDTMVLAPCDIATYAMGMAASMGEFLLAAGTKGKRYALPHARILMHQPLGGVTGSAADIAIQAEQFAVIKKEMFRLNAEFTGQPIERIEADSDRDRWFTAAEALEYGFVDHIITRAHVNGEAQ
UniProt P9WPC3, whole entry partner: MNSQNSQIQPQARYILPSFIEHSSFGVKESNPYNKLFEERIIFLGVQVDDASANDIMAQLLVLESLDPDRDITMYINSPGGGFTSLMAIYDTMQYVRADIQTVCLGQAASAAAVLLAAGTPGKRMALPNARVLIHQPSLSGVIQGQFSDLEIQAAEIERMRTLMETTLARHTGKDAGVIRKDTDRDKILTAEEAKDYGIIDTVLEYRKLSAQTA
UniProt Q4DA54, 1-478: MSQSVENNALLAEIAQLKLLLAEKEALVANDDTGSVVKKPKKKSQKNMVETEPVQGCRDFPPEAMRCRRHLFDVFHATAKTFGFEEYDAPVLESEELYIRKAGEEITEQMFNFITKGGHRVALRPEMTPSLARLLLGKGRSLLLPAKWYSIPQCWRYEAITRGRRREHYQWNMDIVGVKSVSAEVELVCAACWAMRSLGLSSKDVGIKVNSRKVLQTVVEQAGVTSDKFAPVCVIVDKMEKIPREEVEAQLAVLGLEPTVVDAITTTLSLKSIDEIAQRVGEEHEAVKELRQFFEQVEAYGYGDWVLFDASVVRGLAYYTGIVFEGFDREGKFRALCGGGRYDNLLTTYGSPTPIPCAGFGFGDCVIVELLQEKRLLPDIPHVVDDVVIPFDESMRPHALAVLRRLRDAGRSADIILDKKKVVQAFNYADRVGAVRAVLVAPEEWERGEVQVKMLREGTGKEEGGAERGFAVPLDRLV
UniProt Q8IDJ8, 1-583: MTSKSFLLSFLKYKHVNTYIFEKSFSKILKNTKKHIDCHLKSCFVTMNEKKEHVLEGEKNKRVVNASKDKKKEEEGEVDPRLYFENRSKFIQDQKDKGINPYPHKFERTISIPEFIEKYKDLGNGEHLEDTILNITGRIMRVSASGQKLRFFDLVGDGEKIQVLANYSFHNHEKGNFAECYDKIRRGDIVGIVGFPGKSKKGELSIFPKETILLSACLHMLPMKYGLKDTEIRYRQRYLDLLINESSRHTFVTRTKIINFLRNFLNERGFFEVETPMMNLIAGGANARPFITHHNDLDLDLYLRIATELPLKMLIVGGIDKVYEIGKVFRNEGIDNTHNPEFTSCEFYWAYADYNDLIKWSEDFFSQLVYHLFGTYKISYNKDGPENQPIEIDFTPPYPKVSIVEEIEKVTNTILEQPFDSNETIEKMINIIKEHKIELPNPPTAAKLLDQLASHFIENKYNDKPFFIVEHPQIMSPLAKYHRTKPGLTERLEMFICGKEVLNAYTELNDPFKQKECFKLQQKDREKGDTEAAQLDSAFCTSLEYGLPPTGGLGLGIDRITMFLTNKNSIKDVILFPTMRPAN
UniProt P9WNZ1, whole entry: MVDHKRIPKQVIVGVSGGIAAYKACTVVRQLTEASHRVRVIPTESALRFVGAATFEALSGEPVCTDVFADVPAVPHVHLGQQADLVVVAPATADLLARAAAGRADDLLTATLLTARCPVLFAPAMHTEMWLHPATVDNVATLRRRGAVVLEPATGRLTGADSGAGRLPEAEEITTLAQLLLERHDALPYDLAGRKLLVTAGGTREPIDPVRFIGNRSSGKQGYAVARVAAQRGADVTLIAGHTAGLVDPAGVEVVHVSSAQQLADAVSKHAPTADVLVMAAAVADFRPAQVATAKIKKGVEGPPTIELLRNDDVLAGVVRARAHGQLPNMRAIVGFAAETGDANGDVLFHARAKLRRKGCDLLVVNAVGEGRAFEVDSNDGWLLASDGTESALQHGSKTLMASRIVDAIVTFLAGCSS
UniProt I6X8D2, whole entry: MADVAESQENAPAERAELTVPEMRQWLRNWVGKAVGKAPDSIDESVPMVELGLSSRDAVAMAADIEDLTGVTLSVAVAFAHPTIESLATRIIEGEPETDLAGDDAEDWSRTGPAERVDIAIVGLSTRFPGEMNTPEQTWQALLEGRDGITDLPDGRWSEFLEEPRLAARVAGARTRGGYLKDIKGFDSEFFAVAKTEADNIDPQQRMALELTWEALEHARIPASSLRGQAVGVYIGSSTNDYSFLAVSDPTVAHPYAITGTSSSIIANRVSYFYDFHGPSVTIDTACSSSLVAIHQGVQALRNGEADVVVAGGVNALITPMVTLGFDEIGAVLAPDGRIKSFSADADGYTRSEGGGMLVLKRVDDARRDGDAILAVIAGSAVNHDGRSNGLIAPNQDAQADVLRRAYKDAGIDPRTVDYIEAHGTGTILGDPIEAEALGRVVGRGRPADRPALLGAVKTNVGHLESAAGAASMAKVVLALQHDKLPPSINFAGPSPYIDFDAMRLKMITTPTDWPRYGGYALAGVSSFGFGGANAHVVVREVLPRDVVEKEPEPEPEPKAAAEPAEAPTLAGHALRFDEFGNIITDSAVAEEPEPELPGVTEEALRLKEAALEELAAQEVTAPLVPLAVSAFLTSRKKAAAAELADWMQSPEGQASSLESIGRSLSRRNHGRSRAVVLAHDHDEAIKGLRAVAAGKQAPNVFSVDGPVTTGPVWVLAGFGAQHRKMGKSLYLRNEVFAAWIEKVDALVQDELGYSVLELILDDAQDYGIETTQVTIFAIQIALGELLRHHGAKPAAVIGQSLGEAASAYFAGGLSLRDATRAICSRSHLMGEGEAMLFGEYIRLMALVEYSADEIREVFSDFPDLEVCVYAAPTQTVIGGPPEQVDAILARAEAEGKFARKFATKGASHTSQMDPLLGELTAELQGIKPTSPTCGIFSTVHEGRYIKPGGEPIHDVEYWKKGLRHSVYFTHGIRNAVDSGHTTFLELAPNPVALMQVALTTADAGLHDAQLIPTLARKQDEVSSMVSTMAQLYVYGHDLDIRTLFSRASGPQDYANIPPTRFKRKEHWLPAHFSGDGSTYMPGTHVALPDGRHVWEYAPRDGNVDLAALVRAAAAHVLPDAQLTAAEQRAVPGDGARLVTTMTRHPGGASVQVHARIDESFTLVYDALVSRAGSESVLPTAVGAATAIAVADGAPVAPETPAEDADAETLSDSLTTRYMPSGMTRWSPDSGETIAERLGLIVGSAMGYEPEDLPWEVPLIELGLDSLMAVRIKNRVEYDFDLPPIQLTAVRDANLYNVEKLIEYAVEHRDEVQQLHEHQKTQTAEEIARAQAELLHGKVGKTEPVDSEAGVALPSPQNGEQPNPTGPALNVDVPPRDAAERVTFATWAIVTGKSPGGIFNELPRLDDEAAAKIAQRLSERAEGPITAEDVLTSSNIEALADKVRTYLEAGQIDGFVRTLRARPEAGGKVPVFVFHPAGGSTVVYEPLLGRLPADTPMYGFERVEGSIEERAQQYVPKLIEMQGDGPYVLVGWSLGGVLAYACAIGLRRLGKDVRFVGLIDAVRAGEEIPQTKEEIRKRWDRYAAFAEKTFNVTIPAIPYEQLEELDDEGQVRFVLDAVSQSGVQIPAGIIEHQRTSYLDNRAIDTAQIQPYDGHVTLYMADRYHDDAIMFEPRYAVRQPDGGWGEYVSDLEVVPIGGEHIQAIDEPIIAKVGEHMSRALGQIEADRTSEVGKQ

Data taken from ChEMBL document CHEMBL3988442, “University of Dundee, Small-Polar-MMV Screening Library” (2021).

ClpP1P2: 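ClpP1P2, Mycobacterium tuberculosis (UniProt P9WPC5 and UniProt P9WPC3). Protease assay of ClpP1P2, read by the AMC dye that it sets free. Concentration: 50 µM. Direction is inferred from only a few compounds that gave an IC50; most scored high, so higher reads as stronger inhibition. Most other retested compounds had strongly negative values. Of about 69,000 compounds tested this way, about 10 (0.015%) reached 50% or more in at least one test.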
TcHisRS: 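Histidine-tRNA ligase, Trypanosoma cruzi CL Brener (UniProt Q4DA54). Enzyme assay of histidyl-tRNA synthetase; the read-out is not stated. Tested at 30 µM. Higher reads as stronger inhibition (inferred: compounds with an IC50 in retests scored well above the rest). About 69,000 compounds were tested under these conditions; 0.045% (about 31) showed 50% or more at least once.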
PfKRS1: 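Lysine-tRNA ligase, Plasmodium falciparum 3D7 (UniProt Q8IDJ8). Enzyme assay of the cytosolic lysyl-tRNA synthetase in 384-well plates, read by luminescence. Tested at 30 µM. Direction is inferred from only a few compounds that gave an IC50; most scored high, so higher reads as stronger inhibition. Of about 69,000 compounds tested this way, about 49 (0.071%) reached 50% or more in at least one test.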
CoaBC: 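Enzyme assay of CoaBC with a phosphate dye (Biomol Green) read at 650 nm. Target: Coenzyme A biosynthesis protein CoaBC, Mycobacterium tuberculosis (UniProt P9WNZ1). Concentration: 30 µM. Higher reads as stronger inhibition, judged from the few compounds that gave an IC50. Most strong results did not repeat in a second test. About 67,000 compounds were tested under these conditions; 0.06% (about 40) showed 50% or more at least once.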
Leishmania in macrophages: 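Cell assay of Leishmania donovani living inside macrophages; the read-out is not stated. Concentration: 30 µM. The record gives no direction; compounds that gave an IC50 in retests scored well above the rest, so higher reads as stronger inhibition. Of about 69,000 compounds tested this way, about 1,000 (1.5%) reached 50% or more in at least one test.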
Pks13 thioesterase: 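Enzyme assay of the thioesterase domain of polyketide synthase 13; the read-out is not stated. Target: Polyketide synthase Pks13, Mycobacterium tuberculosis (UniProt I6X8D2). Compounds at 30 µM. Higher reads as stronger inhibition (inferred from which compounds were picked for retests). About 67,000 compounds were tested under these conditions; 0.46% (about 300) showed 50% or more at least once.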

Values are the deposited “Percent Effect”, in %.
The record does not define 0% and 100%; most values in the screen are far below 50% and negative numbers occur (in some assays of this library far below -100).
Compounds were drawn at random from those tested, without regard to their results.
Two or more numbers in one place are separate tests of the same structure; such repeats can differ widely.
A dash means the value is not listed here; it may have been measured.

| # | SMILES | ClpP1P2 | TcHisRS | PfKRS1 | CoaBC | Leishmania in macrophages | Pks13 thioesterase |
|---|---|---|---|---|---|---|---|
| 1 | `CC(=O)N1CCCN(C(=O)NCCc2cc(Cl)cc(Cl)c2)CC1` | -8.694% | 6.391% | 0.4355% | 4.961% | -15.72% | -7.874% |
| 2 | `CCC(CC)CN1CCC2(CCC(=O)N2OCc2ccccc2F)CC1` | -13.41% | 5.882% | -7.953% | 4.968% | 4.893% | -9.163% |
| 3 | `O=C(NCC1(O)CCOC1)NCC1(c2ccccc2Cl)CC1` (stereo unspecified) | -1.978% | 4.598% | 1.512% | 6.4% | 22.14% | -33.74% |
| 4 | `CC(Cn1cccn1)NC(=O)N1CCC(NS(C)(=O)=O)CC1` (stereo unspecified) | -8.732% | 0.5405% | -1.075% | 11.54% | 11.21% | -27.39% |
| 5 | `CN(C(=O)Cn1nc(-c2ccc(F)cc2)oc1=O)c1ccccc1` | -5.129% | -6.863% | -1.035% | 3.659% | 17.15% | -21.96% |
| 6 | `CCNC(=O)[C@@H]1C[C@@H](NC(=O)c2ccc(C)cc2O)CN1CCCSC` | -6.007% | 6.03% | 6.299% | 0.8078% | 23.07% | 3.073% |
| 7 | `Fc1ccc(CC2CCN(Cc3nccs3)CC2)cc1` | 2.366% | 4.891% | 6.391% | 7.851% | -36.09% | -51% |
| 8 | `CCN1C(=O)CCCC12CCCN(C(=O)c1sccc1C)C2` (stereo unspecified) | -4.543% | 4.854% | 5.174% | 6.564% | 6.393% | -25.31% |
| 9 | `CN(C)C(=O)C1CN(c2ncccn2)CCN1C` (stereo unspecified) | -14.94% | 6.513% | -1.969% | 4.612% | 10.06% | -1.617% |
| 10 | `Cc1cc(N2CCN(Cc3cn(C)nc3C)CC2)cc(C2CCCN2)n1` (stereo unspecified) | -8.472% | 6.061% | -2.248% | 2.365% | - | 6.654% |
| 11 | `COc1cc(N2CCC3(CC2)CC(N2CCOCC2)C3)ncn1.O=C(O)C(F)(F)F` | - | - | - | - | 5.4% | - |
| 12 | `Cc1ncc2c(n1)C1(CCN(C(=O)C(C)C)CC1)OCC2.Cl` | - | - | - | - | 41.47% | - |
| 13 | `CN1CCCC[C@@H]2[C@H]1[C@@H](c1ccccc1)CCN2C(=O)c1ccccc1` | -9.866% | 5.946% | 3.238% | 1.389% | - | -32.01% |
| 14 | `COc1ccc(Cl)cc1CC(=O)N1CCN(CC(C)O)CC1` (stereo unspecified) | -17.97% | 4.274% | 0.7235% | -5.898% | 21.91% | -11.52% |
| 15 | `Clc1ccc(NCc2nnc(C3CC3)o2)cc1Cl` | 3.581% | 8.387% | 1.085% | -1.449% | 16.64% | -4.985% |
| 16 | `O=C(CSC1CCc2ccccc2NC1=O)NC1CC1` (stereo unspecified) | 6.199% | 0% | 1.373% | -0.7663% | 18.71% | -10.64% |
| 17 | `Fc1cccc(-c2nc(CN3CCCC(Cn4cncn4)C3)co2)c1` (stereo unspecified) | -14.18% | 5.764% | -2.123% | 22.73% & 10.82% | -14.06% | -27.62% |
| 18 | `Cc1ccc(CNC(C)c2ccc(OCC(=O)NC3CC3)cc2)o1` (stereo unspecified) | -4.34% | 3.38% | 3.465% | 4.707% | 20.4% | -12.57% |
| 19 | `CCC(COC)NC(=O)N1CCC(n2ccc(C(F)(F)F)n2)CC1` (stereo unspecified) | -15.56% | 6.748% | 2.471% | 2.945% | -20.81% | -8.256% |
| 20 | `CC(C)CN1CC[C@@H]2[C@@H]1CCN2S(=O)(=O)c1cccs1` | -3.932% | 7.767% | 5.965% | 1.781% | - | -35.71% |
| 21 | `CN(C)CCOCC1CN(Cc2ccoc2)Cc2nnn(C)c21` (stereo unspecified) | 10.09% | 2.479% | -0.105% | 5.462% | - | -17.37% |
| 22 | `COc1ccc(CN2CCC3(CC2)CN(c2ccccn2)CCO3)cc1` | -10.57% | 7.921% | 5.417% | -12.89% | - | -1.645% |
| 23 | `CC(O)CN1CCN(C(=O)c2sccc2C2CC2)CC1` (stereo unspecified) | 23.11% | -0.5634% | 7.084% | 9.288% | 19.94% | - |
| 24 | `CCn1nc(C)cc1C(=O)NCc1cccnc1N(C)C` | -10.22% | 9.268% | 0.6579% | -2.635% | 2.232% | -4.883% |
| 25 | `c1ccc(OCCNC2=NCCCN2)cc1` | -1.017% | 8.04% | -1.62% | 0.6472% | - | 3.695% |
| 26 | `CCOc1cc(CN(C)CCC#N)ccc1OC(F)F` | -17.7% | 0.4484% | -0.7659% | 4.061% | 17.99% | 3.925% |
| 27 | `c1cc(CNCc2ccnc(N3CCCC3)c2)c2c(c1)OCO2` | 11.86% | 6.349% | 4.786% | -4.142% | 27.43% | -10.74% |
| 28 | `Cc1ccc2cccc(S(=O)(=O)N(C)C3CCCN(C)C3)c2n1` (stereo unspecified) | 12.12% | 6.931% | -5.857% | -1.928% | 25.11% | -12.96% |
| 29 | `CCn1ccnc1CN1CCCN(C(=O)c2cc(C)nn2CC)CC1` | -15.41% | 6.471% | -0.2001% | -2.813% | 40.37% | -22.06% |
| 30 | `COc1cc2nc(NCc3scnc3C)nc(N)c2cc1OC` | 4.159% | -1.299% | 2.311% | 5.122% | 62.63% | 12.05% |
| 31 | `[H][C@]12CCN(Cc3cnc(NCc4ccccc4)nc3)C[C@]([H])(CC1)N2` | - | - | - | - | 24.39% | - |
| 32 | `O=C(O)C(F)(F)F.[H][C@@]12CCN(CC3CC3)[C@@]1([H])CCN2C(=O)c1cccc(Cl)c1` | - | - | - | - | 23.02% | - |
| 33 | `CCO[C@@H]1CC[C@H]2[C@H]1OCCN2CCOCc1ccccc1` | -4.974% | 4.124% | 6.458% | 4.433% | - | -0.9351% |
| 34 | `Cc1cnn(CCNCc2ccc(OCc3ccccn3)cc2)c1` | 0.5415% | 10% | 2.905% | -0.8264% | 13.81% | 6.991% |
| 35 | `O=C(CCNC(=O)C1CCCC1)NCc1cccnc1-n1cncn1` | 6.319% | 0% | 1.963% | 8.514% | 15.34% | -11.74% |
| 36 | `CN(Cc1ccc(Cl)c(F)c1)C(=O)CCc1ccncc1` | -11.14% | 6.18% | 8.864% | 1.006% | -5.373% | -10.43% |